Results as given in PubChem BioAssay (NCATS).
This list was built around the results that the source calls inconclusive (neither active nor inactive); the mix of calls is not that of the screen. For some of these results: Potencies of inconclusive entries are doubtful fits and often do not repeat. The source made the active and inactive calls. Unless noted, calls come from the whole dose curve; as a rule, active = well fitted curve in the direction sought with a large enough effect; inconclusive = small, poorly fitted or top-dose-only effect, or another doubt; inactive = no such curve, though single readings can be large; an effect the other way counts as inactive or inconclusive.

Chains of the proteins cited; added tags and fusions are not shown. Lines headed by an entry give the natural chain unless they say otherwise; changes in a name come on top.
UniProt Q12809: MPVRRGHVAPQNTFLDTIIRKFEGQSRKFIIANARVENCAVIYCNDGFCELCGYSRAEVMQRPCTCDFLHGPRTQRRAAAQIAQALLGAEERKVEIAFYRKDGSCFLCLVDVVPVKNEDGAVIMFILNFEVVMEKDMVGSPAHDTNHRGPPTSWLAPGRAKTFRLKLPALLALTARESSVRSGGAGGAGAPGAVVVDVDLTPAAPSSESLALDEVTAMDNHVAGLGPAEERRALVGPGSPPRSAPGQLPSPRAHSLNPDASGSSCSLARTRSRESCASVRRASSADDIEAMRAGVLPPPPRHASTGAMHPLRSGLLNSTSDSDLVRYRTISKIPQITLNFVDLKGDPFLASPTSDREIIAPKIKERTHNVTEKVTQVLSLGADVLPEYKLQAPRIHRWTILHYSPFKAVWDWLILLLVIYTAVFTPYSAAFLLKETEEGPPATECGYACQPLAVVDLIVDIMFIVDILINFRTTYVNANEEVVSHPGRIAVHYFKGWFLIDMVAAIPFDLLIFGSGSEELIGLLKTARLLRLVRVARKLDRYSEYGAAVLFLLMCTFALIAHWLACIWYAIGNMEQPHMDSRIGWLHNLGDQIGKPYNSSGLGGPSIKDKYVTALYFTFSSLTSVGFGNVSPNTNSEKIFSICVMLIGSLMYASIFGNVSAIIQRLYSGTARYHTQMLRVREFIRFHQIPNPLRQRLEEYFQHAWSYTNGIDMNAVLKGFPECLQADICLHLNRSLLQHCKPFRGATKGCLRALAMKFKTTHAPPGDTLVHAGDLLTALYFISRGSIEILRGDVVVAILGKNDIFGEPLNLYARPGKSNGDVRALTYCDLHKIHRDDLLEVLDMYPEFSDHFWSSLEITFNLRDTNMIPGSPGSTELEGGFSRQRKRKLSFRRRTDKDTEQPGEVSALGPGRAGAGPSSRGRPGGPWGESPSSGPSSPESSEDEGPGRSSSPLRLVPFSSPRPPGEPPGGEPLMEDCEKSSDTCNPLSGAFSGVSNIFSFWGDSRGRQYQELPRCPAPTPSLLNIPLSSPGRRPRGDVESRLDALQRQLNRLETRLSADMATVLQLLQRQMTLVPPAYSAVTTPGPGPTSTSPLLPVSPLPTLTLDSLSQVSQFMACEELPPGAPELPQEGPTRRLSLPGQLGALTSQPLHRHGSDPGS
UniProt P27695, whole entry, looked up: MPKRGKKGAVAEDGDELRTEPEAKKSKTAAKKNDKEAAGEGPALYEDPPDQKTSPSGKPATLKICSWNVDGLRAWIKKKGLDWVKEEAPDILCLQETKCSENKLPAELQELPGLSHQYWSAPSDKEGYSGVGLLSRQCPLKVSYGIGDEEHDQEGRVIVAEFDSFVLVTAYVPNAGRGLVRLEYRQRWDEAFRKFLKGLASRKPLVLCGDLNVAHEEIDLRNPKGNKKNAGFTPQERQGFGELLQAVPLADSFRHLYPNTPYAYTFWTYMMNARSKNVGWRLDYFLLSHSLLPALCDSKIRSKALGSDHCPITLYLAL
UniProt P19793: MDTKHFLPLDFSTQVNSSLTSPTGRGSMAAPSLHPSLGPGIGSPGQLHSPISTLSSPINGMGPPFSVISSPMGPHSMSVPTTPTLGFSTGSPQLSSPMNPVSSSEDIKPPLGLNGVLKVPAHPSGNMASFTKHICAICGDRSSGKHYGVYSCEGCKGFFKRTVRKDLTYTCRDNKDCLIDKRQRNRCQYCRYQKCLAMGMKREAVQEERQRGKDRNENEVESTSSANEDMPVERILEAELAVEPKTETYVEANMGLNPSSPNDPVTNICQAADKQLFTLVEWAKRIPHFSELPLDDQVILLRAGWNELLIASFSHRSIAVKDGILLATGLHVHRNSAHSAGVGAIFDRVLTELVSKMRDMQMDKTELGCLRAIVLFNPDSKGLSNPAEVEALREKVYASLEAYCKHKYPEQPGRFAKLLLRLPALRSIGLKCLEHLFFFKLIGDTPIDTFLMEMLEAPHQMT
UniProt P10828: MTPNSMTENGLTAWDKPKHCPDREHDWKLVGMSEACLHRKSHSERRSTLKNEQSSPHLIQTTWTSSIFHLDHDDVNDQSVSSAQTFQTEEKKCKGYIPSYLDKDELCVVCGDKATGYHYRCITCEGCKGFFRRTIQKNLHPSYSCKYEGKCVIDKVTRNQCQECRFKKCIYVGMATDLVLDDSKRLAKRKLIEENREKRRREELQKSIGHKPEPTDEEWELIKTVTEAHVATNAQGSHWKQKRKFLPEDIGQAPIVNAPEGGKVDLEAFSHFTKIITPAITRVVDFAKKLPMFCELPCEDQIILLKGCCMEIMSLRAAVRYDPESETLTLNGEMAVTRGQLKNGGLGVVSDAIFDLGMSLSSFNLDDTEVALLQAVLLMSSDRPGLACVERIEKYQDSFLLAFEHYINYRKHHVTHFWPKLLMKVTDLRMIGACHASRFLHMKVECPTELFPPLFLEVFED

What was measured:
[1] = Cellular Toxicity (caspase-3) MRC-5 (AID 659); conditions: Potency: caspase-3 activation;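 note: 0% = DMSO basal and 100% = 10 µM staurosporine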
In short: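 MRC-5 fibroblasts, 1500/well; 16 h cpd, 37 °C; Caspase-Glo 3/7, 1 h RT; lumi read. Norm: DMSO = 0%, 10 uM staurosporine = 100%. Hill-fit AC50 from qHTS conc-response.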

[2] = Cell Viability - LYMP2-001 (AID 921);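 note: potency is the fitted concentration of half-maximal effect; cells exposed to compound for 24 h at 37 °C; nearly all actives have a fitted effect of over 70% in size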
In short: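 CellTiter-Glo luminescence (intracellular ATP) after 24 hr compound exposure at 37 C, 2500 lymphoblastoid cells/well in complete medium. AC50 fitted with standard Hill equation; tetraoctylammonium bromide positive control.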

[3] = Cell Viability - LYMP2-021 (AID 974);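 note: compound exposure lasts 24 hours at 37 °C; % is set by controls: 0 for no effect and ±100 for the full control effect; nearly all actives have a fitted effect of over 55% in size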
In short: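 Loss of cellular ATP, measured with a luciferase-based CellTiter-Glo readout, serves as the toxicity signal in human lymphoblastoid cells treated for 24 hours at 37 C. Potency is reported as AC50 from a standard Hill model.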

[4] = Cell Viability - LYMP2-014 (AID 983);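 note: cells exposed to compound for 24 h at 37 °C; plate controls were DMSO only for no effect and 92 µM tetraoctylammonium bromide for full effect; nearly all actives have a fitted effect of over 50% in size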
In short: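 Cells are plated at 2500/well and left 5 hr at 37 C. Compounds are added across a concentration range and incubated 24 hr at 37 C in complete medium. CellTiter-Glo is added, and luminescence is read after 30 min at room temperature.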

[5] = qHTS Assay for Identification of Small Molecule Inducers of Hypoxia Response (AID 2120; active = well fitted curve in the direction sought with a large enough effect in the signal ratio, with a control signal flat, not every such curve was filed as active; inconclusive = small, poorly fitted or top-dose-only effect, or a change in a side signal; inactive = no such curve, though single readings can be large or run the other way; the % refers to the signal ratio; note: 0% is about no effect); conditions: hypoxia response reporter cells, beta-lactamase ratio readout; activation: at 104 µM (top of the series)
In short: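 Cell-based qHTS for reporter induction: hypoxia response element controlled beta-lactamase in ME-180 cells. Compounds incubated 17 h at 37 degrees C; activity from blue/green (460/530 nm) ratio, inducers ranked by AC50.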

[6] = target: Peroxisome proliferator-activated receptor gamma (Homo sapiens) (UniProt P37231); test: qHTS assay for small molecule antagonists of peroxisome proliferator-activated receptor gamma signaling (AID 588537; active = well fitted inhibition curve with a large enough effect in the signal ratio, with a control signal flat, not every such curve was filed as active; inconclusive = small, poorly fitted or top-dose-only effect, or effect the other way, or a change in a side signal; the % refers to the signal ratio;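 note: reporter cells co-stimulated with 50 nM rosiglitazone agonist during compound treatment; % of control where 0% means no effect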); conditions: HEK293 PPARg-UAS-bla, beta-lactamase ratio, antagonist mode; activity, negative = inhibition: at 76.8 µM (top of the series)
In short: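 Fluorescence at 460 and 530 nm (405 nm excitation) reported beta-lactamase cleavage of CCF4 after 2 h room-temperature loading. HEK293 reporter cells in 1% charcoal/dextran-treated FBS had received compound and rosiglitazone for 16 h.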

[7] = target: Voltage-gated inwardly rectifying potassium channel KCNH2 (Homo sapiens) (UniProt Q12809); test: qHTS Assay for Small Molecule Inhibitors of the Human hERG Channel Activity (AID 588834);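 note: top concentration of the series differs between compounds; % is set by controls: 0 for no effect and ±100 for the full control effect; lower thallium flux fluorescence means stronger hERG block; nearly all actives have a fitted effect of over 50% in size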
In short: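 Thallium-flux (FluxOR) read-out on FDSS: fluorescence read 10 s before and 2 min after stimulation buffer. hERG-BacMam-transduced U2OS cells, compound exposure about 10 min. AC50 by standard Hill equation.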

[8] = qHTS assay to identify small molecules that stimulate interleukin-8 (IL-8) secretion (AID 651758; active = well fitted activation curve with a large enough effect in the signal ratio; inconclusive = small, poorly fitted or top-dose-only effect, or effect the other way, or a change in a side signal; the % refers to the signal ratio; note: potency is the fitted concentration of half-maximal effect; for activation: 0% is about no effect); conditions: HTRF ratio (665/615); activation: at 92.2 µM (top of the series)
In short: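 Compounds are added to THP-1 cells (2000 per well) and left 16 hrs at 37 C. A labeled anti-IL-8 antibody pair is then added, and IL-8 secretion is measured by time-resolved FRET after 1-3 hrs at room temperature.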

[9] = Counterscreen for APE1 Inhibitors: Fluorescent Dye Displacement Assay (AID 2564);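 note: loss of thiazole orange fluorescence as the dye is displaced from duplex DNA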; note: potency is the fitted concentration of half-maximal effect;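 for activity change, negative = inhibition: 0% = ThO with dsDNA and no compound and -100% = ThO without dsDNA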
In short: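 Reaction mixture of 250 nM Thiazole Orange and 50 nM double-stranded abasic-site DNA was dispensed, compounds were pin-transferred, and fluorescence was read at endpoint (480 nm ex, 540 nm em). Reduced fluorescence indicated dye displacement by DNA binding.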

[10] = target: Endonuclease 4 (Escherichia coli (strain K12)) (UniProt P0A6C1); test: Counterscreen for APE1 Inhibitors: qHTS Assay for Inhibitors of Endonuclease IV (AID 2565); note: potency is the fitted concentration of half-maximal effect
In short: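 Conditions: 2 nM enzyme, 50 nM TAMRA/BHQ-2 substrate, pH 7.5 Tris buffer with 2 mM MgCl2, RT. Compound preincubation 15 min; readout three fluorescence reads 60 s apart, third-minus-first.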

[11] = target: DNA repair nuclease/redox regulator APEX1 (Homo sapiens) (UniProt P27695); test: Confirmation qHTS Assay for Inhibitors of the Human Apurinic/apyrimidinic Endonuclease 1 (APE1) (AID 2572); note: potency is the fitted concentration of half-maximal effect; nearly all actives have a fitted effect of over 30% in size
In short: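 Cleavage of a tetrahydrofuran abasic site in a 50 nM (final) TAMRA/BHQ-2 duplex was tracked by rising fluorescence, measured in kinetic mode; reaction progress computed from the first-to-third read difference.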

[12] = MultiTox-Fluor Cytotoxicity Assay - LYMP1-001 - Live Cells (AID 947);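 note: 0% = DMSO only and full inhibition = tetraoctylammonium bromide control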
[13] = MultiTox-Fluor Cytotoxicity Assay - LYMP1-002 - Dead Cells (AID 960); conditions: LYMP1-002 lymphoblastoid cells, dead-cell protease fluorescence; cytotoxicity (dead cells): at 46.1 µM (top of the series);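 note: 0% = DMSO and 100% = tetraoctylammonium bromide; nearly all actives have a fitted effect of over 60% in size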
In short: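 Cells were plated, rested 5 hr, then treated with compound dilution series for 16 hr at 37 C. After adding substrate reagent and 60 min at room temperature, dead-cell protease fluorescence gave concentration-response curves fitted by the Hill equation.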

[14] = Cell Viability - LYMP2-010 (AID 981);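 note: cells exposed to compound for 24 hours at 37 °C; % is set by controls: 0 for no effect and ±100 for the full control effect; nearly all actives have a fitted effect of over 55% in size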
In short: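 Steps: seed 2500 LYMP2-010 cells per well; incubate 5 hr at 37 C; add compound; incubate 24 hr at 37 C; add CellTiter-Glo, wait 30 min at room temperature; read luminescence. Concentration-response fitted to Hill equation for AC50.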

[15] = Cell Viability - LYMP2-022 (AID 987);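 note: 0% = DMSO alone and full effect = tetraoctylammonium bromide at 92 µM; nearly all actives have a fitted effect of over 55% in size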
In short: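 Cells were seeded at 2500 per well, rested 5 hr at 37 C, and treated with titrated compounds for 24 hr at 37 C. Cellular ATP was then quantified by luciferase luminescence, and AC50 values were derived from Hill-modelled concentration-response curves.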

[16] = target: Glucocorticoid receptor (Homo sapiens) (UniProt P04150); test: qHTS assay for small molecule antagonists of glucocorticoid receptor signaling (AID 588533; active = well fitted inhibition curve with a large enough effect in the signal ratio, with a control signal flat, not every such curve was filed as active; inconclusive = small, poorly fitted or top-dose-only effect, or effect the other way, or a change in a side signal; the % refers to the signal ratio;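 note: cells stimulated with 2 nM dexamethasone as agonist; % is set by controls: 0 for no effect and ±100 for the full control effect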); conditions: HeLa MMTV-bla, GRE beta-lactamase ratio, antagonist mode, 18 h; activity change, negative = inhibition: at 76.8 µM (top of the series)
[17] = target: Peroxisome proliferator-activated receptor gamma (Homo sapiens) (UniProt P37231); test: qHTS assay for small molecule agonists of peroxisome proliferator-activated receptor gamma signaling (AID 588536; active = well fitted curve in the direction sought with a large enough effect in the signal ratio, with a control signal flat, not every such curve was filed as active; inconclusive = small, poorly fitted or top-dose-only effect, or effect the other way, or a change in a side signal; inactive = no such curve, though single readings can be large or run the other way; the % refers to the signal ratio;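 note: 0% = DMSO basal wells and 100% = rosiglitazone at 2 µM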); conditions: HEK293 PPARg-UAS-bla, beta-lactamase ratio, 16 h; activation: at 76.7 µM (top of the series), percent of rosiglitazone response, DMSO as zero
In short: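 Cells were plated and held 6–6.5 h at 37 C, then compounds were added as a titration series. After a further 16 h, CCF4 dye was loaded for 2 h at room temperature and emission at 460/530 nm recorded.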

[18] = target: Retinoic acid receptor RXR-alpha (Homo sapiens) (UniProt P19793); test: qHTS assay for small molecule agonists of retinoid X receptor alpha signaling (AID 588544; calls by dose curve;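 note: 0% = DMSO basal wells and 100% = reference agonist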); conditions: HEK293T RXRa-UAS-bla, beta-lactamase reporter, 18 h; activation: at 76.7 µM (top of the series) unless noted
[19] = target: Thyroid hormone receptor beta (Homo sapiens) (UniProt P10828); test: qHTS assay for small molecule antagonists of thyroid hormone receptor beta signaling (AID 588547; active = well fitted inhibition curve with a large enough effect in the signal ratio, with a control signal flat, not every such curve was filed as active; inconclusive = small, poorly fitted or top-dose-only effect, or effect the other way, or a change in a side signal; the % refers to the signal ratio;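 note: cells stimulated with 0.4 nM T3 agonist during compound exposure; % is set by controls: 0 for no effect and ±100 for the full control effect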); conditions: TR-UAS-bla HEK293, beta-lactamase ratio, antagonist mode, 18 h
In short: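 TR-UAS-bla GripTite HEK293 cells in 2% charcoal/dextran FBS medium; compounds 0.59 nM to 92 uM with T3 at 0.4nM final, 18 h at 37 C. Beta-lactamase read by CCF4 fluorescence (460/530 nm); Hill fits gave IC50 and efficacy.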

[20] = qHTS assay for small molecule activators of the nuclear factor-kappa B (NF-kB) signaling pathway (AID 651749; active = well fitted activation curve with a large enough effect in the signal ratio; inconclusive = small, poorly fitted or top-dose-only effect, or a change in a side signal; the % refers to the signal ratio; note: % of control where 0% means no effect); conditions: NF-kB-bla ME-180 cells, beta-lactamase FRET ratio, 16 h; activation: active compounds read high
In short: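 In this qHTS format, compounds acting as activators increase NF-kB-driven beta-lactamase in ME-180 cells, measured as disrupted FRET after 16 hr exposure at 37C and 5% CO2.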

In the case of `CCC=O`, the Potency [1] is reported as “inactive”, the Potency [2] is reported as inconclusive: 0.01 µM [cytotoxic, full curve, poor fit] and the Potency [3] is reported as “inactive”. The Potency [4] was “inactive”, the Potency [5] was “inactive” and the activity, negative = inhibition [6] was inconclusive: 10.6%. The Potency [7] was “inactive” and the Potency [8] was inconclusive: 66.8 µM [activator, single point].

With `CCn1c(SCC(=O)NCc2ccco2)nnc1-c1cccs1` the Potency [9] was inconclusive: 15.8 µM [inhibitor, single point].

For `Cc1cc(C(=O)O)ccc1-c1ccc(/C=C2\NC(=O)N(Cc3ccc(F)cc3)C2=O)o1`, the Potency [9] was inconclusive: 10 µM [inhibitor, partial curve, poor fit].

For `COC/C=C/C1=CC2=CC(=O)C(C)(OC(=O)c3ccco3)C(=O)C2=CO1` (stereo not drawn), the Potency [9] was inconclusive: 11.2 µM [inhibitor, partial curve], the Potency [10] was inconclusive: 5.62 µM [inhibitor, partial curve] and the Potency [11] was inconclusive: 14.1 µM [inhibitor, partial curve, poor fit].

With `CCCCCC/C(C=O)=C\c1ccccc1` the Potency [12] was “inactive”, the Potency [13] was “inactive” and the Potency [14] was “inactive”. For the same molecule, the Potency [15] was “inactive”, the activation [5] was inconclusive: 0.288% and the activity change, negative = inhibition [16] was inconclusive: 67.6%. For the same molecule, the Potency [17] was “inactive”, the activity, negative = inhibition [6] was inconclusive: 9.57% and the Potency [18] was “inactive”. The activity change % (negative = inhibition) [19] was inactive: 8.8%, the activation [20] was inactive: -0.556% and the activation [8] was inconclusive: -16.5%.

In the case of `COc1cccc2c1NC(C(=O)O)C1CC=CC21` (stereo not drawn), the Potency [9] is reported as inconclusive: 17.8 µM [inhibitor, single point].

In the case of `CCN1/C(=C/C=C/c2oc3ccc4ccccc4c3[n+]2CC)Oc2ccc3ccccc3c21`, the Potency [9] is reported as “inactive” and the Potency [10] is reported as active: 3.16 µM.
